Test results taken from ChEMBL document CHEMBL4303122, “Identification of potential treatments for COVID-19 through artificial intelligence-enabled phenomic analysis of human cells infected with SARS-CoV-2” (2020).
In all, about 1,600 compounds were measured (“Hit score”: median about 0.13, highest 2% from about 0.46 on). Some of the results follow.

Each molecule was assayed on SARS-CoV-2 (assay: Antiviral activity against SARS-CoV-2 (USA-WA1/2020 strain) measured by imaging in HRCE cells at MOI 0.4 after 96 hrs (reported as hit score from 0-1 for on-disease vs off-disease activity: scores >0.6 considered hits)).
Assay type: functional, Homo sapiens

| Structure (SMILES) | Hit score |
| --- | --- |
| CCNC(=O)CC[C@H](N)C(=O)O [THEANINE] | 0.04805 |
| CCN[C@H]1C[C@H](C)S(=O)(=O)c2sc(S(N)(=O)=O)cc21 [DORZOLAMIDE] | 0.177 |
| CCCC(=O)N1CCCN(c2nc(N)c3cc(OC)c(OC)cc3n2)CC1 [BUNAZOSIN] | 0.02603 |
| O=C1Cc2cc(CCN3CCN(c4nsc5ccccc45)CC3)c(Cl)cc2N1 [ZIPRASIDONE] | 0.2424 |
| CC(C)/N=c1\cc2n(-c3ccc(Cl)cc3)c3ccccc3nc-2cc1Nc1ccc(Cl)cc1 [CLOFAZIMINE] | 0.5936 |
| CC(=O)N(O)CCCCCNC(=O)CCC(=O)N(O)CCCCCNC(=O)CCC(=O)N(O)CCCCCN [DEFEROXAMINE] | -6.19e-05 |
| N[C@H](CO)C(=O)O [(D)-SERINE] | 0.1472 |
| CCCC(=O)O[C@]1(C(=O)CCl)[C@H](C)C[C@@H]2[C@@H]3CCC4=CC(=O)C=C[C@]4(C)[C@]3(F)C(=O)C[C@@]21C [CLOBETASONE BUTYRATE] | 0.1427 |
| Cn1c(COP(=O)(NCCBr)NCCBr)cnc1[N+](=O)[O-] [EVOFOSFAMIDE] | 0.03069 |
| CC(C)(C(=O)c1cccnc1)c1cccnc1 [METYRAPONE] | 0.1042 |
| CCC(CC)O[C@@H]1C=C(C(=O)O)C[C@H](N)[C@H]1NC(C)=O [OSELTAMIVIR CARBOXYLATE] | 0.1256 |
| CCC(NC(C)C)C(O)c1ccc(O)c(O)c1 (stereo not drawn) [ISOETHARINE] | -0.1314 |
| COc1ccc(OC)c(C(O)C(C)N)c1 (stereo not drawn) [METHOXAMINE] | 0.2545 |
| CCOC(=O)C(C)(C)Oc1ccc(Cl)cc1 [CLOFIBRATE] | 0.007924 |
| C[C@]12CC[C@H](O)CC1=CC(=O)C1C2CC[C@]2(C)C(=O)CCC12 (stereo partly drawn) [7-KETO-DEHYDROEPIANDROSTERONE] | 0.08537 |
| CN1CCC(C(=O)c2cccc(NC(=O)c3c(F)cc(F)cc3F)n2)CC1 | -0.04275 |
| C#C[C@]1(O)CC[C@H]2[C@@H]3[C@H](C)CC4=C(CCC(=O)C4)[C@H]3CC[C@@]21C [TIBOLONE] | 0.094 |
| Cc1cccc(N2CC(CO)OC2=O)c1 (stereo not drawn) [TOLOXATONE] | -0.02449 |
| CN1CCN(C2=Nc3cc(Cl)ccc3Nc3ccccc32)CC1 [CLOZAPINE] | 0.1925 |
| Cc1ccc(/C=C2/C(=O)C3(C)CCC2C3(C)C)cc1 (stereo not drawn) [ENZACAMENE] | 0.1975 |
| CCOc1ccc2nc(SCCN3CCOCC3)[nH]c2c1 [FABOMOTIZOLE] | 0.2029 |
| NC12CC3CC(CC(C3)C1)C2 [AMANTADINE] | 0.207 |
| CS(=O)(=O)n1cc2c(n1)CN([C@H]1CO[C@H](c3cc(F)ccc3F)[C@@H](N)C1)C2 [OMARIGLIPTIN] | 0.162 |
| CCCN(CCc1cccs1)[C@H]1CCc2c(O)cccc2C1 [ROTIGOTINE] | 0.1872 |
| Clc1ccc(COC(Cn2ccnc2)c2ccc(Cl)cc2Cl)c(Cl)c1 (stereo not drawn) [MICONAZOLE] | 0.003347 |

Retrieved by structure from the entries so far, two records:

| Structure (SMILES) | Hit score |
| --- | --- |
| Clc1ccc(COC(Cn2ccnc2)c2ccc(Cl)cc2Cl)c(Cl)c1 (stereo not drawn) [MICONAZOLE] | 0.003347 |
| Cc1cccc(N2CC(CO)OC2=O)c1 (stereo not drawn) [TOLOXATONE] | -0.02449 |

Part of the list above in order of molar mass, rising:

| Structure (SMILES) | Hit score |
| --- | --- |
| Cc1cccc(N2CC(CO)OC2=O)c1 (stereo not drawn) [TOLOXATONE] | -0.02449 |
| CCC(NC(C)C)C(O)c1ccc(O)c(O)c1 (stereo not drawn) [ISOETHARINE] | -0.1314 |
| CCCC(=O)O[C@]1(C(=O)CCl)[C@H](C)C[C@@H]2[C@@H]3CCC4=CC(=O)C=C[C@]4(C)[C@]3(F)C(=O)C[C@@]21C [CLOBETASONE BUTYRATE] | 0.1427 |

Remaining list, next part

| Structure (SMILES) | Hit score |
| --- | --- |
| OC[C@H]1O[C@@H](c2ccc(F)c(Cc3cc4ccccc4s3)c2)[C@H](O)[C@@H](O)[C@@H]1O [IPRAGLIFLOZIN] | 0.1583 |
| CC1CCc2c(N3CCC(O)CC3)c(F)cc3c(=O)c(C(=O)O)cn1c23 (stereo not drawn) [NADIFLOXACIN] | 0.1702 |
| Cc1ccc(-c2ncc(Cl)cc2-c2ccc(S(C)(=O)=O)cc2)cn1 [ETORICOXIB] | 0.06952 |
| NC(N)=O [UREA] | 0.04168 |
| Cn1c([N+](=O)[O-])cnc1COC(N)=O [RONIDAZOLE] | 0.02203 |
| COc1ccc2c(c1)c(CC(=O)OCC(C(=O)O)c1ccccc1)c(C)n2C(=O)c1ccc(Cl)cc1 (stereo not drawn) | 0.05914 |
| CCC[C@H](NC(=O)[C@@H]1[C@H]2CCC[C@H]2CN1C(=O)[C@@H](NC(=O)[C@@H](NC(=O)c1cnccn1)C1CCCCC1)C(C)(C)C)C(=O)C(=O)NC1CC1 | 0.1221 |
| CCCCC1OC(=O)c2ccccc21 (stereo not drawn) [RAC-3-N-BUTYLPHTHALIDE] | 0.2447 |
| COc1ccc(-c2cc(C(F)F)nn2-c2ccc(S(N)(=O)=O)cc2)cc1F [DERACOXIB] | 0.1986 |
| CCCCCCCCCCCCCCCC[n+]1ccccc1 | 0.1396 |
| COc1ccc(C(=O)NCc2ccc(OCCN(C)C)cc2)cc1OC [ITOPRIDE] | 0.2388 |
| CC(C)CN(C[C@@H](OP(=O)(O)O)[C@H](Cc1ccccc1)NC(=O)O[C@H]1CCOC1)S(=O)(=O)c1ccc(N)cc1 [FOSAMPRENAVIR] | 0.1142 |
| CO[C@H]1C[C@H](O[C@@H]2/C(C)=C/C[C@@H]3C[C@@H](C[C@]4(CC[C@H](C)[C@@H](C5CCCCC5)O4)O3)OC(=O)[C@@H]3C=C(C)/C(=N/O)[C@H]4OC/C(=C\C=C\[C@@H]2C)[C@]43O)O[C@@H](C)[C@@H]1O [SELAMECTIN] | 0.03596 |
| OC(CCN1CCCCC1)(c1ccccc1)C1CCCCC1 (stereo not drawn) [TRIHEXYPHENIDYL] | 0.4673 |
| Nc1nc(NC2CC2)c2ncn([C@H]3C=C[C@@H](CO)C3)c2n1.Nc1nc(NC2CC2)c2ncn([C@H]3C=C[C@@H](CO)C3)c2n1.O=S(=O)(O)O [ABACAVIR SULFATE] | 0.1092 |
| N=C(N)N/N=C/c1c(Cl)cccc1Cl [GUANABENZ] | -0.01672 |
| Cc1ccc2c(Cl)cc(Cl)c(O)c2n1 [CHLORQUINALDOL] | 0.2863 |
| CCCc1nc(C(C)(C)O)c(C(=O)O)n1Cc1ccc(-c2ccccc2-c2nnn[nH]2)cc1 [OLMESARTAN] | 0.1095 |
| Brc1c(NC2=NCCN2)ccc2nccnc12 [BRIMONIDINE] | 0.1067 |
| N#Cc1ccc(Oc2ccc3c(c2)COB3O)cc1 [CRISABOROLE] | 0.00306 |
| CC(N)C12CC3CC(CC(C3)C1)C2 (stereo not drawn) [RIMANTADINE] | 0.1024 |
| Nc1cc(-c2ccncc2)c[nH]c1=O [INAMRINONE] | 0.2162 |
| C=C[C@@H]1C[C@]1(NC(=O)[C@@H]1C[C@@H](Oc2ncc(OC)c3ccc(Cl)cc23)CN1C(=O)[C@@H](NC(=O)OC(C)(C)C)C(C)(C)C)C(=O)NS(=O)(=O)C1CC1 | 0.03635 |
| CN1[C@@H]2CC[C@H]1C[C@@H](OC(=O)C(O)c1ccccc1)C2 (stereo partly drawn) [HOMATROPINE] | 0.09594 |
| CN(CCOc1ccc(CC2SC(=O)NC2=O)cc1)c1ccccn1 (stereo not drawn) [ROSIGLITAZONE] | -0.06876 |

| Structure (SMILES) | Hit score |
| --- | --- |
| C[C@]12CC[C@H](OS(=O)(=O)O)CC1=CC[C@@H]1[C@@H]2CC[C@]2(C)C(=O)CC[C@@H]12 [PRASTERONE SULFURIC ACID] | 0.1405 |
| C#C[C@]1(OC(C)=O)CC[C@H]2[C@@H]3CCC4=C[C@@H](OC(C)=O)CC[C@@H]4[C@H]3CC[C@@]21C [ETHYNODIOL DIACETATE] | 0.2574 |
| Cc1cc(-n2c(=O)[nH]c(=O)n(C)c2=O)ccc1Oc1ccc(SC(F)(F)F)cc1 [TOLTRAZURIL] | 0.1675 |
| OCCOCCN1CCN(C(c2ccccc2)c2ccc(Cl)cc2)CC1 (stereo not drawn) [HYDROXYZINE] | 0.00308 |
| OC[C@H]1O[C@@](CO)(O[C@H]2O[C@H](CO)[C@@H](O)[C@H](O)[C@H]2O)[C@@H](O)[C@@H]1O [SUCROSE] | 0.09545 |
| O=C(C[S+]([O-])C(c1ccccc1)c1ccccc1)NO (stereo not drawn) | 0.2003 |
| CC(=O)Nc1ccc(O)cc1 [ACETAMINOPHEN] | 0.1305 |
| Nc1cccc2c1CN(C1CCC(=O)NC1=O)C2=O (stereo not drawn) [LENALIDOMIDE] | 0.2771 |
| O=P1(N(CCCl)CCCl)NCCCO1 (stereo not drawn) [CYCLOPHOSPHAMIDE ANHYDROUS] | 0.116 |
| COc1ccc2[nH]c([S+]([O-])Cc3ncc(C)c(OC)c3C)nc2c1 (stereo not drawn) [OMEPRAZOLE] | 0.1761 |
| CNC(=O)Oc1ccccc1OC(C)C [PROPOXUR] | 0.2239 |
| CCOC(=O)[C@H](CCc1ccccc1)N[C@@H](C)C(=O)N1CCC[C@H]1C(=O)O | 0.1646 |
| CCc1cccc2c3c([nH]c12)C(CC)(CC(=O)O)OCC3 (stereo not drawn) [ETODOLAC] | 0.1492 |
| CC(=O)Oc1ccc2c(c1)CC[C@@H]1[C@@H]2CC[C@]2(C)[C@@H](O)CC[C@@H]12 [ESTRADIOL ACETATE] | 0.08004 |
| O=C(OCCN1CCOCC1)c1cccnc1Nc1cccc(C(F)(F)F)c1 [MORNIFLUMATE] | 0.09756 |
| CC1=C(CC(=O)O)c2cc(F)ccc2/C1=C\c1ccc([S+](C)[O-])cc1 (stereo not drawn) | 0.1447 |
| CC(Oc1c(Cl)cccc1Cl)C1=NCCN1 (stereo not drawn) [LOFEXIDINE] | 0.1853 |
| COc1nc2ccc(Br)cc2cc1[C@@H](c1ccccc1)[C@@](O)(CCN(C)C)c1cccc2ccccc12.O=C(O)/C=C/C(=O)O [BEDAQUILINE FUMARATE] | 0.01452 |
| C=CC(=O)N1CCC[C@@H](n2nc(-c3ccc(Oc4ccccc4)cc3)c3c(N)ncnc32)C1 [IBRUTINIB] | 0.1068 |
| [O-][n+]1ccccc1S [PYRITHIONE] | 0.2583 |
| NCCCC[C@H](N)C(=O)O.N[C@@H](CSCC(=O)O)C(=O)O.O | 0.1749 |
| Cn1c(=O)cc(N2CCC[C@@H](N)C2)n(Cc2ccccc2C#N)c1=O [ALOGLIPTIN] | 0.1721 |
| COc1cc(Nc2ncc(F)c(Nc3ccc4c(n3)N(COP(=O)(O)O)C(=O)C(C)(C)O4)n2)cc(OC)c1OC [FOSTAMATINIB] | 0.09741 |
